Data from paper PMC7431544.
Results are given in words; binding and its absence hold for the method and conditions named. Binding seen in cells or lysates may run through a third protein. Some binding calls cover weakened binding; strength is not graded here. For part of these data: Sequences can lack the tags named with a protein. One block for each molecule: values may come before it.

Sequences of proteins named here, by UniProt entry; tags and fusion partners are left off.
UniProt P35222: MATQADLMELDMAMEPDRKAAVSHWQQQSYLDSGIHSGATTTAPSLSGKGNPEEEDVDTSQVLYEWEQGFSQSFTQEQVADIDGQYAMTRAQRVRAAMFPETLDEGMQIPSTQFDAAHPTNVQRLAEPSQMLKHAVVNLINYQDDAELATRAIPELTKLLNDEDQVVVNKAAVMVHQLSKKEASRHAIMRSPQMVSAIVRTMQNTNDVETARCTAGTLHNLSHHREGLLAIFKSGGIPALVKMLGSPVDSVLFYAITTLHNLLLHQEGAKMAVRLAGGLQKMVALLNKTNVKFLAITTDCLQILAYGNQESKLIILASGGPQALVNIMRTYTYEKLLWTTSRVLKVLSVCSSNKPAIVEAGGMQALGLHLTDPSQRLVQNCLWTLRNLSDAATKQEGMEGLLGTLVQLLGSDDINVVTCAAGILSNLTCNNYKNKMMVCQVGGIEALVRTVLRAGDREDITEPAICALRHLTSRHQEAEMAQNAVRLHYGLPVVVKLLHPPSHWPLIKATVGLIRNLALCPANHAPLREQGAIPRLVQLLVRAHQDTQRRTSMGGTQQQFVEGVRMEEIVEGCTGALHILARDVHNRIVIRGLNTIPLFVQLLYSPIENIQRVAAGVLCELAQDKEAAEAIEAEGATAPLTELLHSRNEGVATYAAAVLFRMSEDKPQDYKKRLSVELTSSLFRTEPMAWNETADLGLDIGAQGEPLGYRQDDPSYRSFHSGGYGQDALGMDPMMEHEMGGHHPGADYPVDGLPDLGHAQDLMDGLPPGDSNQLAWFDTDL
UniProt Q9NQB0: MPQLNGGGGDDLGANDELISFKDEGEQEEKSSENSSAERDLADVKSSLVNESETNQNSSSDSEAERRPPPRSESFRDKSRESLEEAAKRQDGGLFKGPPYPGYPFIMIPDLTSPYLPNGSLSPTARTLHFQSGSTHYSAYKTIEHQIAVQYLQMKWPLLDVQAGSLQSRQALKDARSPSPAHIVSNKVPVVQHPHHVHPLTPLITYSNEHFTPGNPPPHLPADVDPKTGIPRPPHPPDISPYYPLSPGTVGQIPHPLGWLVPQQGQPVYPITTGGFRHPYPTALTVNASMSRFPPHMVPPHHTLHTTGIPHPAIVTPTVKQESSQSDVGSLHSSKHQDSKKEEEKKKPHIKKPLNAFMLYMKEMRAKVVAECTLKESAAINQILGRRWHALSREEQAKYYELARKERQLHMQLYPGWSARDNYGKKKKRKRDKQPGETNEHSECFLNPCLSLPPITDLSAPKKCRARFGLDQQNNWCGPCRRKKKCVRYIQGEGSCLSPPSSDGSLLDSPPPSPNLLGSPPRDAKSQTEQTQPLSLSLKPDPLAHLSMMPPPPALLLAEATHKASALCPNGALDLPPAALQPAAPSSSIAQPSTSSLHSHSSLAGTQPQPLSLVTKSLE
UniProt P19793: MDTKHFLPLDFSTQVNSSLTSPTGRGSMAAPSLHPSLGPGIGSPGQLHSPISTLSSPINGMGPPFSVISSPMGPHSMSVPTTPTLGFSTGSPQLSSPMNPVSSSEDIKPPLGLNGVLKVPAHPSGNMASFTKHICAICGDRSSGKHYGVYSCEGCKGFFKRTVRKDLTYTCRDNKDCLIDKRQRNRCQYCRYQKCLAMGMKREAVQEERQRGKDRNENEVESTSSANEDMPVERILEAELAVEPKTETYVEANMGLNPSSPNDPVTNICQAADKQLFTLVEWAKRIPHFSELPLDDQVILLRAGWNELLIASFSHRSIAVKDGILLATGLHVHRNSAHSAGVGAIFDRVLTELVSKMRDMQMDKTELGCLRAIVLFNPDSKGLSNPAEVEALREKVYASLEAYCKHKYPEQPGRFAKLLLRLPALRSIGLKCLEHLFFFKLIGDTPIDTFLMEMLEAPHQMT

Key:
[1] = biological target: T1, Myc-tagged farnesoid X receptor (FXR) (UniProt Q96RI1); assay: co-IP; HEK293 cells co-transfected with tagged proteins; cell lysates, IP with anti-HA, anti-Myc or anti-Flag antibody; Fig. 5d with or without FXR overexpression
T1 sequence: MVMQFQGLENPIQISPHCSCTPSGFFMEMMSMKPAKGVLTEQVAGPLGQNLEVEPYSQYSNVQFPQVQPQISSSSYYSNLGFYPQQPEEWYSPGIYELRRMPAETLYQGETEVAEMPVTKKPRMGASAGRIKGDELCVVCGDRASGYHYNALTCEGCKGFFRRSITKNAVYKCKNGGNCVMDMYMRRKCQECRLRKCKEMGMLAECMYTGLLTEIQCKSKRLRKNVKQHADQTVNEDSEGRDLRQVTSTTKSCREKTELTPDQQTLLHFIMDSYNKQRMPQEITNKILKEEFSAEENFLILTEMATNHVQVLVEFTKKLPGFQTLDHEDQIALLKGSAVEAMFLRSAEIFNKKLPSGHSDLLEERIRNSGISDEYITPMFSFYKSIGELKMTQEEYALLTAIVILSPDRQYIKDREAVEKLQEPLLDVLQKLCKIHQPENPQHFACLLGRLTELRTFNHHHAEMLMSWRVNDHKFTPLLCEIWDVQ

[2] = biological target: T2, endogenous farnesoid X receptor (FXR) (human (endogenous in HT-29 and Caco-2)) (UniProt Q96RI1); assay: co-IP; endogenous proteins, HT-29 and Caco-2 cell lysates, IP with anti-FXR
T2 sequence: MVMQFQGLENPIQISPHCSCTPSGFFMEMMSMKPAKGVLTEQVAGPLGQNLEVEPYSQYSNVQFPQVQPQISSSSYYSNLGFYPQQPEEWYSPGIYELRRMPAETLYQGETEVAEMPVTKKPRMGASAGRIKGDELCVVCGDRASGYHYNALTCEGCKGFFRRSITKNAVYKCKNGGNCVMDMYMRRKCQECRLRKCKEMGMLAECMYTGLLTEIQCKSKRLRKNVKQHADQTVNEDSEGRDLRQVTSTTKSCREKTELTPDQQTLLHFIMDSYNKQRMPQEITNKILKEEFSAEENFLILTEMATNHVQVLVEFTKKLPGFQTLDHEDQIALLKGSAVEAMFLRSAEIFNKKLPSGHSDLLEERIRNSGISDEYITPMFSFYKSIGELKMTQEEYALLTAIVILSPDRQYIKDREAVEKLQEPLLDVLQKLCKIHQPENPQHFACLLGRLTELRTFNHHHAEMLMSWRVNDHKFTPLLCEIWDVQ

[3] = biological target: T3, farnesoid X receptor (FXR) expressed from the pUbi-EGFP-FXR lentiviral vector (UniProt Q96RI1); assay: co-IP; nuclear fractions of SW480-FXR and HCT116-FXR cells infected with β-catenin-shRNA, β-catenin-overexpressing or control lentivirus for 48 h, IP with anti-FXR
T3 sequence: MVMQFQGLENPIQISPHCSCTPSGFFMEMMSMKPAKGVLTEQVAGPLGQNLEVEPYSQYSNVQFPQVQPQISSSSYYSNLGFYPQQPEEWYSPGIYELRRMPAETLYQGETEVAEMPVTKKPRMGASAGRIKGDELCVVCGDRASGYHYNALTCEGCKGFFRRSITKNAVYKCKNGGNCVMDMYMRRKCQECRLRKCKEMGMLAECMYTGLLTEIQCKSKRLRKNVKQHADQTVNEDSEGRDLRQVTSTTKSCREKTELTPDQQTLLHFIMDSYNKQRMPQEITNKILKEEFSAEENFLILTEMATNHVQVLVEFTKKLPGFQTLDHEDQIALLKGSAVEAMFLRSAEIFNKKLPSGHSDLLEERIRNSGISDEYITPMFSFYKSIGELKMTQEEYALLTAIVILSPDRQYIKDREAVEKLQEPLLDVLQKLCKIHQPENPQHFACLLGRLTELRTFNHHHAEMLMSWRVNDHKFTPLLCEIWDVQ

Flag-tagged β-catenin = Flag-tagged β-catenin (UniProt P35222); assay: co-IP; HEK293 cells co-transfected with tagged proteins; cell lysates, IP with anti-HA, anti-Myc or anti-Flag antibody; Fig. 5d with or without FXR overexpression
HA-tagged TCF4 = HA-tagged TCF4 (UniProt Q9NQB0); assay: as above

binding [2]: binds
binding [3]: binds
Molecule: endogenous β-catenin (from UniProt P35222 1-781)

binding (Flag-tagged β-catenin): binds
binding (HA-tagged TCF4): no binding
B1: Myc-tagged farnesoid X receptor (FXR) (protein, UniProt Q96RI1 1-486)
chain: MVMQFQGLENPIQISPHCSCTPSGFFMEMMSMKPAKGVLTEQVAGPLGQNLEVEPYSQYSNVQFPQVQPQISSSSYYSNLGFYPQQPEEWYSPGIYELRRMPAETLYQGETEVAEMPVTKKPRMGASAGRIKGDELCVVCGDRASGYHYNALTCEGCKGFFRRSITKNAVYKCKNGGNCVMDMYMRRKCQECRLRKCKEMGMLAECMYTGLLTEIQCKSKRLRKNVKQHADQTVNEDSEGRDLRQVTSTTKSCREKTELTPDQQTLLHFIMDSYNKQRMPQEITNKILKEEFSAEENFLILTEMATNHVQVLVEFTKKLPGFQTLDHEDQIALLKGSAVEAMFLRSAEIFNKKLPSGHSDLLEERIRNSGISDEYITPMFSFYKSIGELKMTQEEYALLTAIVILSPDRQYIKDREAVEKLQEPLLDVLQKLCKIHQPENPQHFACLLGRLTELRTFNHHHAEMLMSWRVNDHKFTPLLCEIWDVQ

Continued, molecule first:

Molecule: Flag-tagged β-catenin (from UniProt P35222 1-781)
binding [1]: binds

Molecule: endogenous retinoid X receptor alpha (RXRα) (from UniProt P19793 1-462)
binding [3]: binds
